Assay results: article doi:10.1101/093377
No constants are given. Whether binding was seen depends on the method and setting.

Target: Peptide LW21
Test: FRET or BRET

B1: Peptide LW21 (peptide)
peptide: GLLDSKKWWLLLLLLLLALLLLLLLLWWKKFSRS
Question: How did the binding turn out when B1 was run?
Answer: no binding
